Measurements: patent US8882853B2, “Environmentally-friendly solvent for washing and dry-cleaning, and laundry composition including the same” (LG Household & Health Care Ltd., priority 2011, dated 2014)

Experiments:
Conditions in all cases: shaken 30 times, left for 3 minutes, sun drying 8 hours at 23 to 25° C., color difference meter
[1] = Effectiveness in cleaning oil (water)-based contaminants, 10D fabric
[2] = Effectiveness in cleaning oil (water)-based contaminants, 20D fabric
[3] = Effectiveness in cleaning oil (water)-based contaminants, JIS fabric

Row | SMILES | Cleaning ability (change in the value of WB), 10D [1] | Cleaning ability (change in the value of WB), 20D [2] | Cleaning ability (change in the value of WB), JIS [3]
1 | CC1(C)OCC(CO)O1 (stereo not drawn) [Example 1, Acetone Glycerol] | 23.62 | 25.22 | 44.97
2 | COCC(CO)OC (stereo not drawn) [Com. Ex. 6, 2,3-Dimethoxy-1-propanol] | 12.88 | 12.99 | 32.92
3 | ClC(Cl)=C(Cl)Cl [Com. Ex. 2, Perchloroethylene] | 35.41 | 30.05 | 53.13
4 | O [Com. Ex. 1, Water] | 1.23 | 2.36 | 14.6
5 | CC(C)CC1(C)OCC(CO)O1 (stereo not drawn) [Example 3, Glycerol-Methyl Isobuthyl Ketone Ketal] | 24.32 | 22.15 | 45.13
6 | CCC1(C)OCC(CO)O1 (stereo not drawn) [Example 2, Glycerol-Methyl Ethyl Ketone Ketal] | 28.54 | 24.31 | 42.85
7 | C[Si]1(C)O[Si](C)(C)O[Si](C)(C)O[Si](C)(C)O[Si](C)(C)O1 [Com. Ex. 4, Decamethyl-cyclopentasiloxane] | 13.09 | 14.69 | 22.68
8 | CCCC1OCC(CO)O1 (stereo not drawn) [Example 4, Glycerol-Butylaldehyde Acetal] | 21.38 | 27.6 | 40.62
